Results deposited as PubChem BioAssay AID1259254 (NCATS, 2017)

Test: 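Finding genes that stop cells copying their DNA twice in one cycle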 (primary screen)
Cell system: human HCT116 colorectal cancer cells
Knock-down reagent: single siRNA against human genes
Timing: 3 days
Read-out: 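Imaged Hoechst DNA stain sorts each cell into a cycle phase by DNA amount; per plate, G2 fraction set to 0% for non-targeting and 100% for GMNN siRNA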
Direction: G2 robust z-score and G2 cells, % of GMNN control: higher = more G2 cells, more excess DNA replication
Rule for the call: 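An siRNA counts as active if its G2 robust z-score lies at least 5 MADs above the screen median; here such calls match roughly 38% of GMNN control or more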
This is a random part of about 59,000 deposited reagents. In the full data, about 1,550 (2.6%) got an active call. 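G2 share is only a proxy for re-replication; each gene was hit by three separate siRNAs, and active genes were retested.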 Unmarked entries are inactive. The numbers tell different reagents against one gene apart. Not all columns of the deposit are shown. The record does not give: the amount of reagent.

target | reagent no. | G2 robust z-score | G2 cells, % of GMNN control
GNB2 | 1 | 0.24 | 4.66
GNB2 | 2 | -0.8 | -2.66
GNB2 | 3 | -0.646 | -1.58
C20orf173 | 1 | -0.475 | -0.376
C20orf173 | 2 | 0.815 | 8.7
C20orf173 | 3 | -0.779 | -2.51
SCGB1D2 | 1 | 4.65 | 35.7
SCGB1D2 | 2 | 0.254 | 4.75
SCGB1D2 | 3 | 1.69 | 14.9
PRRT3 | 1 | 1.29 | 12
PRRT3 | 2 | -0.911 | -3.44
PRRT3 | 3 | -0.932 | -3.59
CNTNAP4 | 1 | 1.69 | 14.9
CNTNAP4 | 2 | 2.82 | 22.8
CNTNAP4 | 3 | 1.24 | 11.7
XRCC3 | 1 | -0.829 | -2.87
XRCC3 | 2 | -0.206 | 1.52
XRCC3 | 3 | -0.564 | -1
XRCC3 | 4 | -0.918 | -3.49
XRCC3 | 5 | -0.781 | -2.53
XRCC3 | 6 | -0.299 | 0.865
NUP160 | 1 | 2.12 | 17.9
NUP160 | 2 | 0.82 | 8.74
NUP160 | 3 | 2.97 | 23.8
CDKL4 | 1 | 0.254 | 4.76
CDKL4 | 2 | -0.382 | 0.283
CDKL4 | 3 | -1.11 | -4.84
ARMS2 | 1 | -0.97 | -3.85
ARMS2 | 2 | 1.51 | 13.6
ARMS2 | 3 | 1.1 | 10.7
TXNRD3 | 1 | -0.971 | -3.86
TXNRD3 | 2 | 1.91 | 16.4
TXNRD3 | 3 | -1.55 | -7.96
TXNRD3 | 4 | -0.992 | -4.01
TXNRD3 | 5 | 0.154 | 4.05
TXNRD3 | 6 | 1.62 | 14.4
CCL26 | 1 | -0.339 | 0.585
CCL26 | 2 | 0.942 | 9.59
CCL26 | 3 | -0.365 | 0.402
FAM171B | 1 | -0.596 | -1.23
FAM171B | 2 | 0.324 | 5.25
FAM171B | 3 | 0.478 | 6.33
BTBD18 | 1 | -0.648 | -1.59
BTBD18 | 2 | 0.134 | 3.91
BTBD18 | 3 | 0.279 | 4.93
KNSTRN | 1 | 0.695 | 7.86
KNSTRN | 2 | -0.89 | -3.29
KNSTRN | 3 | -0.846 | -2.99

In a second layout: results already given
| target | reagent no. | G2 robust z-score | G2 cells, % of GMNN control |
| --- | --- | --- | --- |
| C20orf173 | 3 | -0.779 | -2.51 |
| SCGB1D2 | 1 | 4.65 | 35.7 |
| SCGB1D2 | 2 | 0.254 | 4.75 |
| SCGB1D2 | 3 | 1.69 | 14.9 |
| PRRT3 | 1 | 1.29 | 12 |
